PubChem BioAssay AID1159546 | Gurdon Institute | 2015
Test: 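Which E2 knock-downs shift checkpoint signalling in camptothecin-treated cells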. Cell system: human U2OS osteosarcoma cells. Knock-down reagent: siRNA against human genes, about 60 nM siRNA. Treatment: camptothecin 1 uM for 1 hour before harvest. Read-out: 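Immunoblots of whole-cell lysates; pCHK1/CHK1, pKAP1/KAP1 and gammaH2AX as percent of luciferase control siRNA, after subtracting the undamaged-cell baseline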. Reading the numbers: pCHK1/CHK1 vs control: higher = more CHK1 phosphorylation after camptothecin; pKAP1/KAP1 vs control: higher = more KAP1 phosphorylation after camptothecin; gammaH2AX vs control: higher = more H2AX phosphorylation after camptothecin. Rule for the call: In these data the active calls have pCHK1/CHK1 vs control at about 59.8 or lower.
In the full data, 23 (55%) are marked active. 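a 40% shift in either direction was cited, but only reduced pCHK1/CHK1 counts as active; high values remain inactive.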 The numbers tell different reagents against one gene apart. The record does not give: the time to read-out.

| target | siRNA no. | pCHK1/CHK1 vs control (%) | pKAP1/KAP1 vs control (%) | gammaH2AX vs control (%) | call |
| --- | --- | --- | --- | --- | --- |
| UBE2L3 (ubiquitin conjugating enzyme E2 L3) | 1 | 35.5 | 71.6 | 77.3 | active |
| UBE2J2 (ubiquitin conjugating enzyme E2 J2) | 1 | 77.1 | 62.9 | 57.9 | inactive |
| UBE2V1 (ubiquitin conjugating enzyme E2 V1) | 1 | 54.8 | 82.4 | 54.7 | active |
| UBE2V2 (ubiquitin conjugating enzyme E2 V2) | 1 | 11.6 | 155 | 91.4 | active |
| CDC34 (cell division cycle 34, ubiquitin conjugating enzyme) | 1 | 27.8 | 16.9 | 64 | active |
| UBE2E3 (ubiquitin conjugating enzyme E2 E3) | 1 | 92.9 | 99.4 | 86.2 | inactive |
| UEVLD (UEV and lactate/malate dehyrogenase domains) | 1 | 130 | 47.9 | 79.8 | inactive |
| UBE2A (ubiquitin conjugating enzyme E2 A) | 1 | 90 | 109 | 87.6 | inactive |
| UBE2N (ubiquitin conjugating enzyme E2 N) | 1 | 0 | 1.43 | 18 | active |
| UBE2N (ubiquitin conjugating enzyme E2 N) | 2 | 90.2 | 172 | 49.8 | inactive |
| UBE2H (ubiquitin conjugating enzyme E2 H) | 1 | 52.6 | 150 | 97.7 | active |
| TSG101 (tumor susceptibility 101) | 1 | 101 | 90.3 | 94.5 | inactive |
| UBE2L6 (ubiquitin conjugating enzyme E2 L6) | 1 | 35 | 59.4 | 55.9 | active |
| UBE2K (ubiquitin conjugating enzyme E2 K) | 1 | 94 | 115 | 99.4 | inactive |
| UBE2S (ubiquitin conjugating enzyme E2 S) | 1 | 58.4 | 13.7 | 84.8 | active |
| UBE2D4 (ubiquitin conjugating enzyme E2 D4) | 1 | 54.2 | 120 | 89.1 | active |
| UBE2E2 (ubiquitin conjugating enzyme E2 E2) | 1 | 127 | 52.9 | 86.7 | inactive |
| UBE2NL (ubiquitin conjugating enzyme E2 N like (gene/pseudogene)) | 1 | 93.6 | 119 | 85.5 | inactive |
| RBBP8 (RB binding protein 8, endonuclease) | 1 | 34.2 | 172 | 97.2 | active |
| UBE2F (ubiquitin conjugating enzyme E2 F (putative)) | 1 | 102 | 117 | 51.9 | inactive |
| UBE2G1 (ubiquitin conjugating enzyme E2 G1) | 1 | 31.9 | 36.2 | 78.1 | active |
| UBE2J1 (ubiquitin conjugating enzyme E2 J1) | 1 | 43.8 | 70.6 | 58.4 | active |
| UBE2Q2 (ubiquitin conjugating enzyme E2 Q2) | 1 | 36.2 | 0 | 38.6 | active |
| BRCA1 (BRCA1 DNA repair associated) | 1 | 46.9 | 59.5 | 97.5 | active |
| BIRC6 (baculoviral IAP repeat containing 6) | 1 | 68.5 | 19.7 | 91.6 | inactive |
| UBE2Z (ubiquitin conjugating enzyme E2 Z) | 1 | 85.9 | 85.3 | 88.1 | inactive |
| UBE2R2 (ubiquitin conjugating enzyme E2 R2) | 1 | 70.3 | 6.44 | 146 | inactive |
| UBE2W (ubiquitin conjugating enzyme E2 W) | 1 | 45.7 | 28.3 | 71.4 | active |
| UBE2D1 (ubiquitin conjugating enzyme E2 D1) | 1 | 40.8 | 84.8 | 75.3 | active |
| UBE2B (ubiquitin conjugating enzyme E2 B) | 1 | 81.1 | 71.5 | 92.4 | inactive |
| UBE2M (ubiquitin conjugating enzyme E2 M) | 1 | 147 | 88.2 | 104 | – |
| UBE2T (ubiquitin conjugating enzyme E2 T) | 1 | 46.9 | 53 | 85.2 | active |
| UBE2Q1 (ubiquitin conjugating enzyme E2 Q1) | 1 | 58.5 | 120 | 70.9 | active |
| UBE2U (ubiquitin conjugating enzyme E2 U) | 1 | 51.4 | 30.9 | 67.7 | active |
| UBE2C (ubiquitin conjugating enzyme E2 C) | 1 | 59.8 | 57.2 | 94.8 | active |
| UBE2E1 (ubiquitin conjugating enzyme E2 E1) | 1 | 113 | 123 | 89.8 | inactive |
| UBE2D3 (ubiquitin conjugating enzyme E2 D3) | 1 | 1.79 | 0 | 24.4 | active |
| UBE2D2 (ubiquitin conjugating enzyme E2 D2) | 1 | 12.4 | 20.3 | 33.5 | active |
| UBE2O (ubiquitin conjugating enzyme E2 O) | 1 | 22.3 | 26.3 | 36.5 | active |
| UBE2G2 (ubiquitin conjugating enzyme E2 G2) | 1 | 70.1 | 53 | 96.1 | inactive |
| AKTIP (AKT interacting protein) | 1 | 91.4 | 80.7 | 89.5 | inactive |

Part of the list above, reformatted:
UBE2F (ubiquitin conjugating enzyme E2 F (putative)): pCHK1/CHK1 vs control (%) = 102; pKAP1/KAP1 vs control (%) = 117; gammaH2AX vs control (%) = 51.9; call = inactive
UBE2G1 (ubiquitin conjugating enzyme E2 G1): pCHK1/CHK1 vs control (%) = 31.9; pKAP1/KAP1 vs control (%) = 36.2; gammaH2AX vs control (%) = 78.1; call = active
UBE2J1 (ubiquitin conjugating enzyme E2 J1): pCHK1/CHK1 vs control (%) = 43.8; pKAP1/KAP1 vs control (%) = 70.6; gammaH2AX vs control (%) = 58.4; call = active
